This is an account of results in article PMC9795622.

Sequences of proteins named here, by UniProt entry; tags and fusion partners are left off.
UniProt Q13620: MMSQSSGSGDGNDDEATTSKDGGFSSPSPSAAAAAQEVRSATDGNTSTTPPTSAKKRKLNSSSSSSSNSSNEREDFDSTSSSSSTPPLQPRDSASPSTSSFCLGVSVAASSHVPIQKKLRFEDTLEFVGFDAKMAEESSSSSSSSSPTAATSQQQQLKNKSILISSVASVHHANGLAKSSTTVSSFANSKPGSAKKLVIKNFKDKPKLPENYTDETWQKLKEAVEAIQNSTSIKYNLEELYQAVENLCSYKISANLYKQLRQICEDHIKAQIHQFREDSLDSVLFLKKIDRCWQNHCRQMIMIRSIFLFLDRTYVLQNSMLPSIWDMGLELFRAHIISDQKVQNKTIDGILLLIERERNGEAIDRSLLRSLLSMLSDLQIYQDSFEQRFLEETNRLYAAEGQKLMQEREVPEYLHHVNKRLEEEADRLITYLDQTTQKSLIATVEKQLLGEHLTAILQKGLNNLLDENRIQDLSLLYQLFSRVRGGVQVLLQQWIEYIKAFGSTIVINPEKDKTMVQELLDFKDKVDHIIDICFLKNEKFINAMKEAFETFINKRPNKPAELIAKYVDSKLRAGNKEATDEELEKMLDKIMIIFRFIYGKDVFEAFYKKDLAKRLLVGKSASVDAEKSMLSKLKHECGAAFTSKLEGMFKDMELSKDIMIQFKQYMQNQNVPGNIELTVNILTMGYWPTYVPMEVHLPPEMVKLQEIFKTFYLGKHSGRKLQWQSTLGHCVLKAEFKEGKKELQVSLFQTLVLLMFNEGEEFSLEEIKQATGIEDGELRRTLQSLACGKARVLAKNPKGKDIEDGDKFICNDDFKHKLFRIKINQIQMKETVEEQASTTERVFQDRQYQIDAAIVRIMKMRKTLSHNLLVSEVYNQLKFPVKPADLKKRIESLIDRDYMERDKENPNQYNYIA
UniProt Q86U44: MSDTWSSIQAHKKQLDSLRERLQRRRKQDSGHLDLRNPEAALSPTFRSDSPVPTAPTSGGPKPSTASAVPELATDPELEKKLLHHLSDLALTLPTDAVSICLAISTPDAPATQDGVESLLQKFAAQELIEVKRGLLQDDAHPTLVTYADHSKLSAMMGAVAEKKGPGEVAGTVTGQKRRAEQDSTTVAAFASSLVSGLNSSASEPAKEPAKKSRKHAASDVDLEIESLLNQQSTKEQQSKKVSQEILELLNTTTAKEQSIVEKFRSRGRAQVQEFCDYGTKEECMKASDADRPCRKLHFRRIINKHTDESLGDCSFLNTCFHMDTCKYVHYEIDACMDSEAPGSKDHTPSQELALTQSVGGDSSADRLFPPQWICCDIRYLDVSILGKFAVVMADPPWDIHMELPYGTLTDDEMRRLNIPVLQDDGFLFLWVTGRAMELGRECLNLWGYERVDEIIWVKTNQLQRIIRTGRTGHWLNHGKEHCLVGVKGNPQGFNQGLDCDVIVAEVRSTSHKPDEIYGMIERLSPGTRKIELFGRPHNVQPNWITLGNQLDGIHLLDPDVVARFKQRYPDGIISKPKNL
UniProt Q16531: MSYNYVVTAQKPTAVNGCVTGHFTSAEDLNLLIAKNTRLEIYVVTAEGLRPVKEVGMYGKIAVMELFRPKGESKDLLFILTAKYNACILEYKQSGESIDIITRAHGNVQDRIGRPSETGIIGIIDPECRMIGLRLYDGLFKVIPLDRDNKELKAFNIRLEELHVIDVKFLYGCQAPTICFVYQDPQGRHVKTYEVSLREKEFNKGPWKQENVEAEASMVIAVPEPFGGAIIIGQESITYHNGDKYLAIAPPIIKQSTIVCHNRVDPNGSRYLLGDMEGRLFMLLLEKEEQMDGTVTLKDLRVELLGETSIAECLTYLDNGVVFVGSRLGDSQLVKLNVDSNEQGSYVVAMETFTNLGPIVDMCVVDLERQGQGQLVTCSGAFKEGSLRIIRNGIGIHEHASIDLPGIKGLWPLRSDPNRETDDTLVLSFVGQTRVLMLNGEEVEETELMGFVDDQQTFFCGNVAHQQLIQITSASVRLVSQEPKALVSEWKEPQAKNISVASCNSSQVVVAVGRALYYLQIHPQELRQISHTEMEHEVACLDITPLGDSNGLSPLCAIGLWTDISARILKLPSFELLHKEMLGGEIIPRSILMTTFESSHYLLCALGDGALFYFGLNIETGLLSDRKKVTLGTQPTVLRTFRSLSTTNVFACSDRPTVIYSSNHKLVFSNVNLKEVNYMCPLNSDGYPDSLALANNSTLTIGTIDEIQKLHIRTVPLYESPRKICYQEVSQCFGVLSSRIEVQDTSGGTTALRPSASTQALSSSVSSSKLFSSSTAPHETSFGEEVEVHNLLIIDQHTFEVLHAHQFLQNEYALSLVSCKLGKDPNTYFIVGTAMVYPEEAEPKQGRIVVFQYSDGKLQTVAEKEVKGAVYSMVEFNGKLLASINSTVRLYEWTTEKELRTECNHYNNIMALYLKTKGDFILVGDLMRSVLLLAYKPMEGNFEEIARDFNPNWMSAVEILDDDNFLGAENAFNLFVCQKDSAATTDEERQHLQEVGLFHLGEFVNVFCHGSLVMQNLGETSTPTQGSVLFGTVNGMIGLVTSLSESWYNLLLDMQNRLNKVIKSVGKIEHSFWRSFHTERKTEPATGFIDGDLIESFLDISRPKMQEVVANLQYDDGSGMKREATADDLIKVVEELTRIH
UniProt Q9UBP6: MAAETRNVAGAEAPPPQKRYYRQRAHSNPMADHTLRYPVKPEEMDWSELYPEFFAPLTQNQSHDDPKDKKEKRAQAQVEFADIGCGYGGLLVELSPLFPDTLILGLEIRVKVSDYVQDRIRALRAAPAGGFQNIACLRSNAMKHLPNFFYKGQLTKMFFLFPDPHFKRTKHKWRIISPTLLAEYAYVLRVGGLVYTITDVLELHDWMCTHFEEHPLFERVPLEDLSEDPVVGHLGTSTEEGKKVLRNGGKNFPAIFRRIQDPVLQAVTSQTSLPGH
UniProt Q09028: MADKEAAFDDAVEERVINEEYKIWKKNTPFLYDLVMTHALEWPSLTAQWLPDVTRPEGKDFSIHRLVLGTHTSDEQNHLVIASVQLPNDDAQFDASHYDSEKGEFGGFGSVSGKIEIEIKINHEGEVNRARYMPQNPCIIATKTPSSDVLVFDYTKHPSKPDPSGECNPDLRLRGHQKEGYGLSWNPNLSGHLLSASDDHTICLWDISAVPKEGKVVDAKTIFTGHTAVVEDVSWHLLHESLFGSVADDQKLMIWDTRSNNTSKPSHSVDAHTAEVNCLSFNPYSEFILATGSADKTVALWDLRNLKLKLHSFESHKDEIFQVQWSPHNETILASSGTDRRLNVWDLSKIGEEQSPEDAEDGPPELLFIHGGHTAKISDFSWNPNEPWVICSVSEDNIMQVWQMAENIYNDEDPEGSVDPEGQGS

Results are given in words; binding and its absence hold for the method and conditions named. Binding seen in cells or lysates may run through a third protein. Some entries that bind do so weakly or less than the wild type. For some assays here: Where a sequence is shown, tags or fusion partners need not be part of it.

Assay [1] concerns the target T1, SET and MYND domain-containing protein 3 (SMYD3), endogenous (human (endogenous in LM3 and SK-HEP-1)) (UniProt Q9H7B4).
T1 sequence: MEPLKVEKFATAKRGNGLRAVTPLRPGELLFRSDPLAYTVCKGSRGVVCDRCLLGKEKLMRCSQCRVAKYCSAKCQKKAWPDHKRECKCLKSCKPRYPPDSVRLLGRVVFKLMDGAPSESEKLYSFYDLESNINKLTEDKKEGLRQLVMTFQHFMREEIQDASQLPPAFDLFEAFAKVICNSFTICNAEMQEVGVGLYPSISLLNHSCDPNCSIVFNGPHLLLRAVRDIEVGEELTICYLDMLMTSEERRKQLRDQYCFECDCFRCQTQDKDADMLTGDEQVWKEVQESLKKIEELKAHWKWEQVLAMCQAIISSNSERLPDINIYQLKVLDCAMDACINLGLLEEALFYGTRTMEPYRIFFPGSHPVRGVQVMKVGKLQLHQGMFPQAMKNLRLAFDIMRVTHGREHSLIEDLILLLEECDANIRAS
The assay is described as follows: co-IP; endogenous proteins; whole cell lysates of LM3 and SK-HEP-1 cells, primary antibody or normal IgG at 4 °C overnight, protein A/G magnetic beads 2 h at 4 °C, immunoblot.

A further assay deals with T2, GST-fused SMYD3 (UniProt Q9H7B4).
T2 sequence: T1 sequence
The assay is described as follows: pull-down; about 10 ug GST fusion protein mixed with 5-8 uL in vitro transcribed/translated product in 0.8% BSA in PBS with protease inhibitors, glutathione-Sepharose beads 2 h at 4 °C, five washes, western blot; only the target purified.

On to CUL4B (from UniProt Q13620 1-913), for which, in assay [1], the binding result is recorded as “binds”.

As to METTL3 (from UniProt Q86U44 1-580), in assay [1], the binding entry is “binds”.

For the substance DDB1 (from UniProt Q16531 1-1140), the binding result in assay [1] is given as “binds”.

As to METTL1 (from UniProt Q9UBP6 1-276), the binding result in assay [1] was “binds”.

With “RBBP4, in vitro transcribed/translated (from UniProt Q09028 1-425)”, in the assay with GST-fused SMYD3, the binding entry is “binds”.
